No constants are given. Whether binding was seen depends on the method and setting. Some entries that bind do so weakly or less than the wild type.

This experiment has as its target T1, ROL5, Arabidopsis thiouridylase (Arabidopsis thaliana) (UniProt O64862).
T1 sequence: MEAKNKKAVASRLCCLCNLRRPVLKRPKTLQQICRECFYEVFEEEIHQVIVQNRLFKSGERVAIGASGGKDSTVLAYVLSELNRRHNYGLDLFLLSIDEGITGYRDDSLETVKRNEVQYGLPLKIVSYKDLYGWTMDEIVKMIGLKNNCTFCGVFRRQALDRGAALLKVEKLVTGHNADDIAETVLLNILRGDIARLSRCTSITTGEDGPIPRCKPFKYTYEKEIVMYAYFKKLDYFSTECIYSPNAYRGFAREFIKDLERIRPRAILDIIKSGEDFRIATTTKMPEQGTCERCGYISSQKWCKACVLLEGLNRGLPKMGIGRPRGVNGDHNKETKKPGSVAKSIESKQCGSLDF
Nature of the experiment: two-hybrid; ROL5 as bait (pLEXA-N), URM11 or URM12 as prey (pGAD-HA); growth on selective medium and reporter staining (beta-galactosidase in the legend, GUS in the text); performed three times independently; empty-vector controls showed no autoactivation.

B1: URM12, ubiquitin-related modifier of Arabidopsis thaliana (protein, UniProt B3H7G2 1-99)
chain: MQFTLEFGGGLELLCDSVKIHKVNINLLNDSDILTMKDLLSWVRTNLIKERPEMFMKGDTVRPGVLVLVNDCDWELSGQLDTTLEDKDVIVFISTLHGG
For B1, the binding result was “binds”.

B2: URM11, ubiquitin-related modifier of Arabidopsis thaliana (protein, UniProt A0MDQ1 1-101)
chain: MQLTLEFGGGLELLCDSEKIHKVNVDLPNGADSDDFTMKHLLSWVRTNLIKERPEMFMKGDTVRPGVLVLVNDCDWELSGQLDTVIEDKDVVVFISTLHGG
As to B2, the binding result is on record as “binds”.

(Values after publication PMC3899330.)
